Assay results as given in the supplement of paper PMC6078165.
± gives the standard deviation of the averaged measurements. Values are relative to the signal before dosing, not to a vehicle control; the signal also falls without drug.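 Cells used are triple-negative breast cancer lines, either basal-like or mesenchymal-like, grown in the absence of fibroblasts. Lower red signal means mitochondrial integrity is lost, a surrogate for apoptosis.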

What was measured:
Assay in all cases: relative JC-1 red fluorescence (viability) vs pre-drug, monoculture (fraction); higher = more viable cancer cells
Settings in all cases: coculture fibroblast: none (monoculture)
BT20 = tested on: BT20
Protocol: (§1)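 JC-1 labelled TNBC cells grown in monoculture (density kept equal with unlabelled cancer cells) in 384-well plates in FluoroBrite medium, treated with one of 42 anticancer drugs at 0.1, 1, 10 or 100 uM. JC-1 red fluorescence (mitochondrial integrity, surrogate of apoptotic death) was read by plate reader every 8 h for 72 h. Values are normalised to each well's pre-drug value, with background from alamethicin. The stock of one drug was tenfold lower, so its dose labels may be too high. Monoculture values are repeated alongside each fibroblast plate and are averaged here.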

Hs578T = tested on: Hs578T
Protocol: as §1

HCC1143 = tested on: HCC1143
Protocol: as §1

MDAMB468 = tested on: MDAMB468
Protocol: as §1

C=C1C[C@@H]2[C@H](CC[C@]3(C)C(=O)CC[C@@H]23)[C@@]2(C)C=CC(=O)C=C12 [Exemestane]
relative JC-1 red fluorescence
Settings	8 h	16 h	24 h	32 h	40 h	48 h	56 h	64 h	72 h
BT20, 0.1 µM	0.9443 ± 0.00076	0.878 ± 0.017	0.7965 ± 0.0016	0.725 ± 0.01	0.68 ± 0.03	0.644 ± 0.041	0.622 ± 0.042	0.597 ± 0.049	0.593 ± 0.057
BT20, 1 µM	0.901 ± 0.0096	0.841 ± 0.029	0.772 ± 0.039	0.722 ± 0.036	0.672 ± 0.025	0.648 ± 0.028	0.618 ± 0.035	0.6 ± 0.032	0.583 ± 0.029
BT20, 10 µM	0.9495 ± 0.0035	0.907 ± 0.019	0.871 ± 0.044	0.841 ± 0.06	0.845 ± 0.097	0.845 ± 0.13	0.838 ± 0.14	0.835 ± 0.16	0.775 ± 0.12
BT20, 100 µM	0.90912 ± 0.00029	0.8529 ± 0.0056	0.854 ± 0.019	0.774 ± 0.015	0.754 ± 0.014	0.7362 ± 0.0021	0.704 ± 0.0016	0.6922 ± 0.0036	0.6832 ± 0.0013
HCC1143, 0.1 µM	0.8779 ± 0.0028	0.812 ± 0.0099	0.73659 ± 0.00056	0.6815 ± 0.0037	0.626 ± 0.011	0.585 ± 0.018	0.56 ± 0.021	0.538 ± 0.027	0.521 ± 0.031
HCC1143, 1 µM	0.875 ± 0.012	0.7959 ± 0.0025	0.71949 ± 3.9e-05	0.635 ± 0.0086	0.588 ± 0.016	0.55 ± 0.022	0.518 ± 0.015	0.492 ± 0.022	0.473 ± 0.015
HCC1143, 10 µM	0.949 ± 0.01	0.857 ± 0.018	0.793 ± 0.023	0.74 ± 0.02	0.681 ± 0.03	0.633 ± 0.029	0.578 ± 0.049	0.537 ± 0.062	0.512 ± 0.066
HCC1143, 100 µM	0.878 ± 0.031	0.762 ± 0.073	0.696 ± 0.12	0.625 ± 0.14	0.565 ± 0.15	0.526 ± 0.14	0.504 ± 0.13	0.497 ± 0.1	0.501 ± 0.097
Hs578T, 0.1 µM	0.8381 ± 0.003	0.767 ± 0.018	0.687 ± 0.021	0.655 ± 0.029	0.619 ± 0.037	0.593 ± 0.045	0.561 ± 0.037	0.548 ± 0.045	0.53 ± 0.045
Hs578T, 1 µM	0.8239 ± 0.0043	0.7354 ± 0.0073	0.673 ± 0.021	0.598 ± 0.022	0.557 ± 0.028	0.539 ± 0.028	0.511 ± 0.035	0.507 ± 0.045	0.49 ± 0.049
Hs578T, 10 µM	0.8511 ± 0.00061	0.781 ± 0.014	0.72 ± 0.017	0.688 ± 0.016	0.644 ± 0.021	0.621 ± 0.025	0.599 ± 0.037	0.586 ± 0.036	0.57 ± 0.044
Hs578T, 100 µM	0.867 ± 0.01	0.785 ± 0.024	0.6953 ± 0.0019	0.625 ± 0.015	0.562 ± 0.017	0.518 ± 0.015	0.47 ± 0.019	0.452 ± 0.017	0.43 ± 0.016
MDAMB468, 0.1 µM	0.8955 ± 0.0013	0.825 ± 0.015	0.742 ± 0.019	0.673 ± 0.0068	0.6294 ± 0.0013	0.608 ± 0.0088	0.576 ± 0.02	0.548 ± 0.026	0.54 ± 0.025
MDAMB468, 1 µM	0.911 ± 0.019	0.856 ± 0.053	0.825 ± 0.067	0.75 ± 0.071	0.721 ± 0.082	0.702 ± 0.087	0.671 ± 0.082	0.64 ± 0.077	0.625 ± 0.079
MDAMB468, 10 µM	0.9096 ± 0.0018	0.85 ± 0.0023	0.8097 ± 0.0013	0.7589 ± 0.005	0.7289 ± 0.0056	0.72412 ± 0.00052	0.6997 ± 0.0032	0.6867 ± 0.0034	0.6788 ± 0.0025
MDAMB468, 100 µM	0.94 ± 0.012	0.926 ± 0.013	0.875 ± 0.017	0.796 ± 0.018	0.723 ± 0.017	0.683 ± 0.024	0.62 ± 0.011	0.5797 ± 0.0015	0.564 ± 0.007
